Experimental data reported in paper doi:10.1101/2021.06.18.448924.
No constants are given. Whether binding was seen depends on the method and setting. Binding calls can cover weak binding; strength is not graded here.

B1: ribosomal protein uL1 of the E. faecalis 70S ribosome (protein, UniProt Q830Q6 1-229)
chain: MAKKSKKMQEALKKVDATKAYSVEEAVALAKDTNIAKFDATVEVAYKLNVDPKKADQQIRGAVVLPNGTGKTQTVLVFAKGEKAKEAEAAGADFVGDDDMVAKIQGGWFDFDVVVATPDMMATVGKLGRVLGPKGLMPNPKTGTVTMDVTKAVEEVKAGKVTYRVDKAGNIHVPIGKVSFDNEKLVENFNTINDVLLKAKPSTAKGQYIKNISVTTTFGPGIHVDQASF
B2: ribosomal protein uS7 of the E. faecalis 70S ribosome (protein, UniProt Q839H0 1-156)
chain: MPRKGPVAKRDVLPDPIYNSKLVTRLINRVMVDGKRGIAANIIYNSFDIIKESTGNDPLEVFEQAMKNVMPVLEVKARRVGGSNYQVPVEVRPERRTTLGLRWVVNYARLRGEHTMEERLAKEIMDAANNTGASVKKREDTHKMADANRAFAHYRW

Molecular target: E. faecium PoxtA(E9F6)-EQ2 with C-terminal His6-TEV-FLAG3 tag (E. faecium)
Assay: cryo-EM structure

Binder	binding
B1	binds
B2	binds
